This is an account of results in article PMC3741135.

Amino acid sequences for entries named in this document (tags omitted).
UniProt F1RNW6: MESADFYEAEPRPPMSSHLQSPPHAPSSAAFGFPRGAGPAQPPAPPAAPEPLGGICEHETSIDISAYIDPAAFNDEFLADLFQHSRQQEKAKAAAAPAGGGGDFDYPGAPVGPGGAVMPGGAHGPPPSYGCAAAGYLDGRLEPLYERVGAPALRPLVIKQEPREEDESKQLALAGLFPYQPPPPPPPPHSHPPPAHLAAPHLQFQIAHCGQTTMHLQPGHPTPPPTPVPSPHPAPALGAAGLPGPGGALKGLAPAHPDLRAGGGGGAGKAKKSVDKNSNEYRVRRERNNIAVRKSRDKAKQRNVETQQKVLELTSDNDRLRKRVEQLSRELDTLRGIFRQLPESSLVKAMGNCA

No constants are given. Whether binding was seen depends on the method and setting. In cells and extracts the contact can be indirect. Some binding calls cover weakened binding; strength is not graded here.

In the assay the target is T1, Sirt1 (endogenous, porcine adipocytes) (pig (endogenous in porcine adipocytes)) (UniProt A7LKB1).
T1 sequence: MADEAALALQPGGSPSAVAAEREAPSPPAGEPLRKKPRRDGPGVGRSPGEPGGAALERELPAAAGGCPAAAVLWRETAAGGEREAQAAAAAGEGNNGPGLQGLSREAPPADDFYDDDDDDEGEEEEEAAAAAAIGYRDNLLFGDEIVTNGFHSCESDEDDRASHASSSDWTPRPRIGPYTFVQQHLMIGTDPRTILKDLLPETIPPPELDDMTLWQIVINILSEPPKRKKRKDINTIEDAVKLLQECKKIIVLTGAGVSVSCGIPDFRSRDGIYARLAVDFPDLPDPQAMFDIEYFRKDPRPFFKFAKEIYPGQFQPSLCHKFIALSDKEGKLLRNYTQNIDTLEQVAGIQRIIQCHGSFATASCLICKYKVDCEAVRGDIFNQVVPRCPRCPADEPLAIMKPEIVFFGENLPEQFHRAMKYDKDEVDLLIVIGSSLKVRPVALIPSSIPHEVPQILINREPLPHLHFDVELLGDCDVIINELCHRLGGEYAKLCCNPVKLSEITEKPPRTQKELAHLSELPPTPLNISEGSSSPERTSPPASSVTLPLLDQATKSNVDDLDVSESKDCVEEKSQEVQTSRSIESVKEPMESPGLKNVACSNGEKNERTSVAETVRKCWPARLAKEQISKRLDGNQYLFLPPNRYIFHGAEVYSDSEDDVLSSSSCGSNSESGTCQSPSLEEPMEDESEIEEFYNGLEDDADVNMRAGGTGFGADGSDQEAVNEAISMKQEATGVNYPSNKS
Description: co-IP; endogenous proteins; 10 mg total porcine adipocyte lysate with 4 µg antibody overnight, captured on goat anti-rabbit or anti-mouse IgG magnetic beads for 4 h; washed 4 times with lysis buffer; Western blot; Akt2 with Sirt1 over the days of differentiation, the other pairs at day 8 after induction.

As to “C/EBPα (endogenous, porcine adipocytes) (from UniProt F1RNW6 1-354)”, the binding entry was “binds”.
